Data taken from paper PMC11152120.
No constants are given. Whether binding was seen depends on the method and setting. Binding seen in cells or lysates may run through a third protein. Some results given as binding are weak or reduced against the parent protein; the word gives no strength. One block for each molecule: values may come before it.

Sequences of proteins named here, by UniProt entry; tags and fusion partners are left off. Residues count along the entry.
UniProt P16070, residues 21-742: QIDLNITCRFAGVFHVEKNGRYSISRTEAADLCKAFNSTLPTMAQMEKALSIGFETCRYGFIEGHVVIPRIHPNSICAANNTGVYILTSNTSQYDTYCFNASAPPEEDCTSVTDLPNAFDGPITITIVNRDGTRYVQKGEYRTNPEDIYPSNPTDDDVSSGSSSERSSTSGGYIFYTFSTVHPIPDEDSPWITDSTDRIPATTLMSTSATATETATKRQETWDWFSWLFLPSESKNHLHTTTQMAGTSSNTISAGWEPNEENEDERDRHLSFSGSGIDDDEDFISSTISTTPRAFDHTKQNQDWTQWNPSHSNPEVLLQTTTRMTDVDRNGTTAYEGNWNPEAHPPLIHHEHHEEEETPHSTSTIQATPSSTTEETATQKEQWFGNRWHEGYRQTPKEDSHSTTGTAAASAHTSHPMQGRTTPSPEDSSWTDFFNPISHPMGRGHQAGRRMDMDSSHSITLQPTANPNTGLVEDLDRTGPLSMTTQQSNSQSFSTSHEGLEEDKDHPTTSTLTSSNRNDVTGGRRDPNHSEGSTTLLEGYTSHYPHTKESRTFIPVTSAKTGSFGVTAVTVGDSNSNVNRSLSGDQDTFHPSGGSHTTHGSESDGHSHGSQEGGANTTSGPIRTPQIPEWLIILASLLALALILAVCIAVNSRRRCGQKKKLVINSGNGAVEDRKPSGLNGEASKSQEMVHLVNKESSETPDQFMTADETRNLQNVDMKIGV
UniProt Q05397: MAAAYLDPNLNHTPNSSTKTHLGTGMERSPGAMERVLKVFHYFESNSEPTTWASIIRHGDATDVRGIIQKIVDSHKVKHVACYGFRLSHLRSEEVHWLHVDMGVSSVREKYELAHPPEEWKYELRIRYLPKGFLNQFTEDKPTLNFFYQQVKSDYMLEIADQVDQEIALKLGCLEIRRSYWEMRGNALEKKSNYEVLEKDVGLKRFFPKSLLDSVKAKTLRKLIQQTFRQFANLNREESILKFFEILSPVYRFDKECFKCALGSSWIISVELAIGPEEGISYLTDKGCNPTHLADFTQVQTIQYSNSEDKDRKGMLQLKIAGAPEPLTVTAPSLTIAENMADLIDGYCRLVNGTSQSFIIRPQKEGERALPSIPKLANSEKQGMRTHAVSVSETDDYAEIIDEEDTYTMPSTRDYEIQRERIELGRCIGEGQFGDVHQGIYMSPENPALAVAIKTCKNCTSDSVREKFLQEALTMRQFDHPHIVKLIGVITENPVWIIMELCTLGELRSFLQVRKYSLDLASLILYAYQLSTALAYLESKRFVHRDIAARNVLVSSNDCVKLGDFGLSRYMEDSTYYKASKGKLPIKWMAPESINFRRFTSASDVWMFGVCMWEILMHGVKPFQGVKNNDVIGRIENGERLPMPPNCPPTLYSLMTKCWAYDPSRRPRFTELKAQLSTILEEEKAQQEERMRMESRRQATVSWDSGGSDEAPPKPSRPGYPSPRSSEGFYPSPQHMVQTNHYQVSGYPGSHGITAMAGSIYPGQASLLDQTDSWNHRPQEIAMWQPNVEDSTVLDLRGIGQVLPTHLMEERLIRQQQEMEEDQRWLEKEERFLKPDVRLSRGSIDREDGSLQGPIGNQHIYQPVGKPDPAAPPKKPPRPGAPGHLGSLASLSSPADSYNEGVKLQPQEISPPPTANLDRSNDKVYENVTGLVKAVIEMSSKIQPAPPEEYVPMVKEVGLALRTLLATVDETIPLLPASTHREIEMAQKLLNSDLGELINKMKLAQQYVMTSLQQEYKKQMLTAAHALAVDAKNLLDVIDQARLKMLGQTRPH

Assays:
[1] = target: CD44, endogenous (human (endogenous in LM3 and Huh7)) (UniProt P16070); test: co-IP; endogenous proteins from LM3 and Huh7 whole-cell lysates (RIPA buffer with protease inhibitors); antibody overnight, Protein A/G agarose 4 h at 4°C, four washes, immunoblot; also in shControl/shHMMR and WT/CD44-ko LM3 cells
[2] = target: T1, Hyaluronan-mediated motility receptor (HMMR), endogenous (human (endogenous in LM3 and Huh7)) (UniProt O75330); test: co-IP; anti-HMMR immunoprecipitation from the membrane component of LM3 and Huh7 cells (WT)
T1 sequence: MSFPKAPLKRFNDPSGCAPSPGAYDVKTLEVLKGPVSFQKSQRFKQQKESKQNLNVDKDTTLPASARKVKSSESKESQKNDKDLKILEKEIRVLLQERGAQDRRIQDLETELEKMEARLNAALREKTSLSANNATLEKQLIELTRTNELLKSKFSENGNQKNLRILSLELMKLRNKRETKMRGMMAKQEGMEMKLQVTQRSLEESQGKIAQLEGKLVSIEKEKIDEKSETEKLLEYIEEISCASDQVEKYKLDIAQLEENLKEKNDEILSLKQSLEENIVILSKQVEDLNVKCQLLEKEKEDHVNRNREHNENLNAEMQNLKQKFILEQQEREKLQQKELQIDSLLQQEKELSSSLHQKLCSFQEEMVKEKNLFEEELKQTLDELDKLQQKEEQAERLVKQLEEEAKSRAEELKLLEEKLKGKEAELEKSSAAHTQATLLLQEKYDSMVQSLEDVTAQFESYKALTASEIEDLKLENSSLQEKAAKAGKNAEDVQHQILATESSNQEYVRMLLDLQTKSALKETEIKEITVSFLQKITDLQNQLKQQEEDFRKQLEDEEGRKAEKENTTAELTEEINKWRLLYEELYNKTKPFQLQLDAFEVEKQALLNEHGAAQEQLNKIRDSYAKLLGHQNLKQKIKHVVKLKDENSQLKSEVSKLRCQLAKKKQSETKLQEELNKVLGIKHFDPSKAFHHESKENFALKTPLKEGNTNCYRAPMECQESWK

[3] = target: T1, Hyaluronan-mediated motility receptor (HMMR), endogenous (human (endogenous in LM3 and Huh7)); test: co-IP; endogenous proteins from LM3 and Huh7 whole-cell lysates (RIPA buffer with protease inhibitors); antibody overnight, Protein A/G agarose 4 h at 4°C, four washes, immunoblot; also in shControl/shHMMR and WT/CD44-ko LM3 cells

binding [1]: binds
Molecule: FAK, endogenous (from UniProt Q05397 1-1052) (enzyme)

binding [2]: binds
binding [3]: binds
Molecule: CD44, endogenous (from UniProt P16070 21-742) (receptor)

binding [1]: binds
B1: Hyaluronan-mediated motility receptor (HMMR), endogenous (protein, UniProt O75330 1-724)
chain: T1 sequence
